# The other results are listed elsewhere or left out. The data scatter; read single values as rough.
# Protein sequences, listed by entry. Tags and fused reporters are not part of them. Lines headed by an entry give the natural chain unless they say otherwise; changes in a name come on top. Residues count along the entry.
# UniProt Q9UHR6: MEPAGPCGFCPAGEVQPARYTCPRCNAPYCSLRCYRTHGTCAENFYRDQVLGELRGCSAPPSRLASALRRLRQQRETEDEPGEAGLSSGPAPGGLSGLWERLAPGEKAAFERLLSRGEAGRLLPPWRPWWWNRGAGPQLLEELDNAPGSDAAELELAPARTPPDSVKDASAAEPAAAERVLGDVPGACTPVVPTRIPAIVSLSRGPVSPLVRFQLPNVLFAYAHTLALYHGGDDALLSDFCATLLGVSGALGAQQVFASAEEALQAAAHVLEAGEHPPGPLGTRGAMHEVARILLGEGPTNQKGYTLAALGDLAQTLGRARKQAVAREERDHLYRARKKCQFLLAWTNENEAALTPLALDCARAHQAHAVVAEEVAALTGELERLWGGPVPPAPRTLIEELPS
# UniProt Q86YH2: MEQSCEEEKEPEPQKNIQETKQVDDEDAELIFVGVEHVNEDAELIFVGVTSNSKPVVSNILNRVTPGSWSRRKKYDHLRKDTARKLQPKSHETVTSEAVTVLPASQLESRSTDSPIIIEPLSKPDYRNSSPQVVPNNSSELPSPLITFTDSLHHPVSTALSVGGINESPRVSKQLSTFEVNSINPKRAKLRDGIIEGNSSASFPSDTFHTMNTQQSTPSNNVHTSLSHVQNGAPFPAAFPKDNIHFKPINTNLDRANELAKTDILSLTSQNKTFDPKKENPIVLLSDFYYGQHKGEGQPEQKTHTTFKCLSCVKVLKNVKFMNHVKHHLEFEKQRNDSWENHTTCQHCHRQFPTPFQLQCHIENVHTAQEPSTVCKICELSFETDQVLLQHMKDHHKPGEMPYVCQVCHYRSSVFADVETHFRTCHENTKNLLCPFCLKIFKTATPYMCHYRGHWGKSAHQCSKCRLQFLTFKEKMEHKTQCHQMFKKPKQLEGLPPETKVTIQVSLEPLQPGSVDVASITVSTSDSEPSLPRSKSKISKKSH
# UniProt Q9H2Y7, 1201-1225: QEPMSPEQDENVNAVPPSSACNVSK
# UniProt Q7Z2W4: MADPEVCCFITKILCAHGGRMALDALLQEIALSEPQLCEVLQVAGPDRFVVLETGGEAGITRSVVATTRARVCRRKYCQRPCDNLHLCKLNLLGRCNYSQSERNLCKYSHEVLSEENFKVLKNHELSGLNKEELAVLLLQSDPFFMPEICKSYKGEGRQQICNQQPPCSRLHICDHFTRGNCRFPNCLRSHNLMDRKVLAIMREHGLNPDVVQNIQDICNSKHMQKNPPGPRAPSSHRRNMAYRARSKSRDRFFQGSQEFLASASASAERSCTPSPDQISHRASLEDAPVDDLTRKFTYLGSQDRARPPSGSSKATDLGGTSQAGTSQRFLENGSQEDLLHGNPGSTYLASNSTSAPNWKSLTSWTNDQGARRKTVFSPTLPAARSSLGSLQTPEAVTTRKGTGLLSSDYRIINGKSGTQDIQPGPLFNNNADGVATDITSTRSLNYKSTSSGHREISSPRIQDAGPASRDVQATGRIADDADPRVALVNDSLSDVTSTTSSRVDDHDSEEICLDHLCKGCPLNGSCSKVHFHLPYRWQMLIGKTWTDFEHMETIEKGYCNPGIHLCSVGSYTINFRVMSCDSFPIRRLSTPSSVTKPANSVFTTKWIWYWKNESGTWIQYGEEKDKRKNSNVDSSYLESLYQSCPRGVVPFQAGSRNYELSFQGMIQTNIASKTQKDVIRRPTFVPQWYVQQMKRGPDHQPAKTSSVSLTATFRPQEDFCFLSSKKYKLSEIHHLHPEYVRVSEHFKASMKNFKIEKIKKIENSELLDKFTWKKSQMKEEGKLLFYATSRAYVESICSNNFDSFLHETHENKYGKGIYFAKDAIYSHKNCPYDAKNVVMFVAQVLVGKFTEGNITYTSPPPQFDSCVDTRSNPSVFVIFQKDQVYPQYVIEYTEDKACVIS
# UniProt O43264, 668-687: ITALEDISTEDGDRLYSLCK
# UniProt Q9H8U3: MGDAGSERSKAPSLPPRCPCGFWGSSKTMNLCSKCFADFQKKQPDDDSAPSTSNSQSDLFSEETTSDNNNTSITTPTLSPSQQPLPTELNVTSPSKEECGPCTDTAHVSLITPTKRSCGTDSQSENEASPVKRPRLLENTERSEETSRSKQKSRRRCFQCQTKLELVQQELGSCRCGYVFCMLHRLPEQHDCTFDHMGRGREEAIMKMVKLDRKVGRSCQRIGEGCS
# UniProt O43149: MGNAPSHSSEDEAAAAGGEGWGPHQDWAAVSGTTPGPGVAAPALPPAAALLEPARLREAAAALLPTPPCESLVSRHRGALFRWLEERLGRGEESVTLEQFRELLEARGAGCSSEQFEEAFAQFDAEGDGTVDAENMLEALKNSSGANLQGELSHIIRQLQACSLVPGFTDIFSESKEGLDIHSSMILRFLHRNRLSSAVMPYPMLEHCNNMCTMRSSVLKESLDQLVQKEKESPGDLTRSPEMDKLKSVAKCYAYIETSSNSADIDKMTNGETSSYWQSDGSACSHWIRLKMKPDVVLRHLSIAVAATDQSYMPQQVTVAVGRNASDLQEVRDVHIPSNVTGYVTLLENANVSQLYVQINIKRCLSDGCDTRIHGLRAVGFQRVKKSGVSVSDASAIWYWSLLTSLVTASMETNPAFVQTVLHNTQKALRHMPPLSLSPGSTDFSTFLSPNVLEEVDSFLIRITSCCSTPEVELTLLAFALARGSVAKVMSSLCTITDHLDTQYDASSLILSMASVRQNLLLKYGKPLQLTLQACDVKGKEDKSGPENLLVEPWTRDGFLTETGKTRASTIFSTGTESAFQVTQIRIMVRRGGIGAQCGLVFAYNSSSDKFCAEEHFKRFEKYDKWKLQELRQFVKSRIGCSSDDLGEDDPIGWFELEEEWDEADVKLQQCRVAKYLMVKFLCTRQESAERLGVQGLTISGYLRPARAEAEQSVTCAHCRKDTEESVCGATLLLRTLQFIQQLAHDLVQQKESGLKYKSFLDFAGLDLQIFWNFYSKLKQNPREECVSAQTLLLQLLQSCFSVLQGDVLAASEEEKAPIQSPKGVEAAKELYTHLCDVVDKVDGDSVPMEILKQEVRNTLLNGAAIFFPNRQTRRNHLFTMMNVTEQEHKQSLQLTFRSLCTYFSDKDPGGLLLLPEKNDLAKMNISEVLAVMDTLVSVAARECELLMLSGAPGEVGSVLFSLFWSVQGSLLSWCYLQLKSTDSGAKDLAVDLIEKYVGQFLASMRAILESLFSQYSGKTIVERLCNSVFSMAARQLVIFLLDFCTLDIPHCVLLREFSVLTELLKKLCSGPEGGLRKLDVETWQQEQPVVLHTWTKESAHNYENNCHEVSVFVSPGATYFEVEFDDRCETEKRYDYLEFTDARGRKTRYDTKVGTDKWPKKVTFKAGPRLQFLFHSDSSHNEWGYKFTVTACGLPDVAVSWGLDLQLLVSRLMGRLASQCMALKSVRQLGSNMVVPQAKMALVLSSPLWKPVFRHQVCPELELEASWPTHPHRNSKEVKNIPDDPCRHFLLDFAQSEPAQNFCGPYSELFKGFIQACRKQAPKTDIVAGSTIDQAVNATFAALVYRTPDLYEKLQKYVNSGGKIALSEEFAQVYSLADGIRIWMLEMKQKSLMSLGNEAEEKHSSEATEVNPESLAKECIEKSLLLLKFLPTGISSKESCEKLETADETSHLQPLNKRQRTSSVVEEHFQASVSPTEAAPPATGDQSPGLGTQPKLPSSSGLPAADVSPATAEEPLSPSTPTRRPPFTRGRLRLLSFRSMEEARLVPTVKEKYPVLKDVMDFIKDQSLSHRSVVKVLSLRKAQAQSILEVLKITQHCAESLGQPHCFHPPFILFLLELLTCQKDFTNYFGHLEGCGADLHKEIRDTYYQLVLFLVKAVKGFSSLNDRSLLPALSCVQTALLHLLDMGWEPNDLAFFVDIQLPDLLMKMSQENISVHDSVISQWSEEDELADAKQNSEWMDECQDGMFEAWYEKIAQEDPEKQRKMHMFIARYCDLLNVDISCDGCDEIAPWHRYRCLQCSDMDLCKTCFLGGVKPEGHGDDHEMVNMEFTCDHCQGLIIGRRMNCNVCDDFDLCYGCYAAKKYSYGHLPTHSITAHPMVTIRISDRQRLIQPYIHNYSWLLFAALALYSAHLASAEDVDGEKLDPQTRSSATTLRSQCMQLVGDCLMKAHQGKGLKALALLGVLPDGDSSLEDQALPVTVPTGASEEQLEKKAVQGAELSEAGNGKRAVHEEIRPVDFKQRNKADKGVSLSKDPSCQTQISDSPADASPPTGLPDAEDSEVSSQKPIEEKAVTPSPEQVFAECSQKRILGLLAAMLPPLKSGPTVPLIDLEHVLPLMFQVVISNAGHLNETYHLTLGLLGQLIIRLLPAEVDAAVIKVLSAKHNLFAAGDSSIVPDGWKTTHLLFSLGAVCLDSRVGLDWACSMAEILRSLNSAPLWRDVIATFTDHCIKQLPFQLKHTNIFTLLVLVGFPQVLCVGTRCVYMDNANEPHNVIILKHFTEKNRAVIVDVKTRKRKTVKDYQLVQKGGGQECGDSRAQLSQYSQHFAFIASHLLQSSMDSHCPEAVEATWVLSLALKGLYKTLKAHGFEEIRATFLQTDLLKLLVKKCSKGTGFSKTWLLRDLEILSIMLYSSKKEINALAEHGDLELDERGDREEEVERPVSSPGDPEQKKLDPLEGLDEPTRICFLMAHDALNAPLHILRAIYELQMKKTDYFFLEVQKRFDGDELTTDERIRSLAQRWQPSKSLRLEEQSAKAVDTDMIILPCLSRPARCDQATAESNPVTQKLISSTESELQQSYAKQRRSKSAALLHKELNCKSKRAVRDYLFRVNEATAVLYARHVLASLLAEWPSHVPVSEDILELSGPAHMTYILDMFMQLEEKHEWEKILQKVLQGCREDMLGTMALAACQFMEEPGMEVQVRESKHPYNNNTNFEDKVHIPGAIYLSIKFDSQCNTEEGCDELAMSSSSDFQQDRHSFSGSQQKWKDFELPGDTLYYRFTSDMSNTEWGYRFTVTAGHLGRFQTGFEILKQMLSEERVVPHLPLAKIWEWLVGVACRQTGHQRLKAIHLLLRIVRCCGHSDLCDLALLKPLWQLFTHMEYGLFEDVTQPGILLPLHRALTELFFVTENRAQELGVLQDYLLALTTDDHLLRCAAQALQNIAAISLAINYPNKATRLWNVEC
# UniProt Q9UGR2: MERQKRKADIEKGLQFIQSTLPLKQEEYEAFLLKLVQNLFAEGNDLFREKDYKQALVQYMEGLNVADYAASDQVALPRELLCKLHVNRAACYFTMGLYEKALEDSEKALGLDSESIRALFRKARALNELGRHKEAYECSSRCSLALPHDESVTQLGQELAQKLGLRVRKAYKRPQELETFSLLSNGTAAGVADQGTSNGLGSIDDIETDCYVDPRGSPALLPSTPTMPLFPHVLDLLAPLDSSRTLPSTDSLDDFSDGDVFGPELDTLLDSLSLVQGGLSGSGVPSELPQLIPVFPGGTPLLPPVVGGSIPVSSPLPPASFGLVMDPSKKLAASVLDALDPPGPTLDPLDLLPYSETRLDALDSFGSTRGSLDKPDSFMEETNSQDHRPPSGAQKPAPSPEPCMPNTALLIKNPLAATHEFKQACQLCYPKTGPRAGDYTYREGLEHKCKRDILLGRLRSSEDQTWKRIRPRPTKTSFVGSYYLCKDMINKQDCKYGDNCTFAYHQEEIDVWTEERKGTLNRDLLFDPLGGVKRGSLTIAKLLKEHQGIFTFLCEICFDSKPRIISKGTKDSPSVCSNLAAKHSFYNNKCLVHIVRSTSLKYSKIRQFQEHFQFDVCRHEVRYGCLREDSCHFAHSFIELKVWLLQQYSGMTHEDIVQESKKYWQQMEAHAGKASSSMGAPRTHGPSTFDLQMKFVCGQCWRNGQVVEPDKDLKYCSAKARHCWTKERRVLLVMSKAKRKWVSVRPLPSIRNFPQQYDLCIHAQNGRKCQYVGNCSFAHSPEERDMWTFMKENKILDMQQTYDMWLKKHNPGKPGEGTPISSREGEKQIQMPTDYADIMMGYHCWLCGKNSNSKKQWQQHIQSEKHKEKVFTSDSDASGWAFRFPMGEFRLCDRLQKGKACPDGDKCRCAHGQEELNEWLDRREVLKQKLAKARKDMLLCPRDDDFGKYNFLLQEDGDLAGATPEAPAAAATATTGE
# UniProt Q9BQ24: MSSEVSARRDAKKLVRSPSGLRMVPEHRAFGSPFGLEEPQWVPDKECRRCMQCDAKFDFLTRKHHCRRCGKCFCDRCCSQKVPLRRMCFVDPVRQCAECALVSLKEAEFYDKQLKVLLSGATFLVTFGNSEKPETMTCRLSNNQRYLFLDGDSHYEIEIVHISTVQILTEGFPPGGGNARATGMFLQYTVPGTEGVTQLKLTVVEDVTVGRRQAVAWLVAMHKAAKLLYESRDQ
# Compound: ClCC(=O)N[C@@H]1CCCc2ccccc12
# Assay: log2 mean competition ratio of IA-DTB cysteine labelling (DMSO/compound) (log2 ratio); higher = stronger cysteine engagement by compound
# Settings: 50 µM; treatment time: 4 h; cell line lysate: HEK293T
# Protocol: (§1)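 IA-DTB competitive cysteine chemoproteomics in HEK293T RIPA lysate. Lysates were treated with compound 29 or 30 at 50 or 200 µM for 4 h, then IA-DTB (500 µM, 1 h), trypsin-digested, NeutrAvidin-enriched and analysed by diaPASEF. Competition ratio = intensity DMSO / intensity compound (n=4 treated, n=64 DMSO); binding: mean log2 CR ≥ 1 and p ≤ 0.05 plus QC filters. Target is the cysteine site.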
row,Target,log2 mean competition ratio
1,ZNHIT2 C41 (UniProt Q9UHR6),0.0103
2,ZMYM4 C1368 (UniProt Q5VZL5),-0.009
3,ZFC3H1 C241 (UniProt O60293),-0.449
4,ZFC3H1 C1068 (UniProt O60293),-0.0431
5,ZNF562 C17 (UniProt Q6V9R5),-0.0882
6,ZNF302 C274,0.115
7,ZNF280B C5 (UniProt Q86YH2),-0.302
8,ZNF747 C108,-0.311
9,ZNF516 C165 (UniProt Q92618),0.215
10,ZMYM2 C823 (UniProt Q9UBW7),0.0791
11,ZNF106 C544 (UniProt Q9H2Y7),-0.142
12,ZC3HAV1 C272 (UniProt Q7Z2W4),0.0238
13,ZMYM6 C454,0.277
14,ZNF609 C1120 (UniProt O15014),-0.333
15,ZNF704 C55,0.0261
16,ZW10 C686 (UniProt O43264),0.041
17,ZNF195 C207,0.0171
18,"ZNF654 C732, A0A1B0GWA0",0.0781
19,ZNF518A C813,0.061

row,Target,log2 mean competition ratio
1,ZSWIM8 C1441 (UniProt A7E2V4),-0.00833
2,ZMYM4 C715 (UniProt Q5VZL5),-0.0694
3,ZNF616 C174,0.0592
4,ZNF507 C86 (UniProt Q8TCN5),-0.184
5,ZCCHC3 C348 (UniProt Q9NUD5),0.151
6,ZFAND3 C35 (UniProt Q9H8U3),-0.0604
7,ZNF592 C1221 (UniProt Q92610),-0.387
8,ZZEF1 C2553 (UniProt O43149),-0.00439
9,ZC3H7A C894 (UniProt Q8IWR0),0.279
10,ZNF318 C242 (UniProt Q5VUA4),0.189
11,ZC3HAV1 C645 (UniProt Q7Z2W4),-0.327
12,ZNF106 C1221 (UniProt Q9H2Y7),-0.109
13,ZDBF2 C1996,0.00702
14,ZC3H7B C576 (UniProt Q9UGR2),0.116
15,ZYX C384 (UniProt Q15942),-0.205
16,ZNF398 C275,-0.241
17,ZFYVE21 C88 (UniProt Q9BQ24),0.0618
18,ZNF217 C341 (UniProt O75362),-0.0646

# Same assay, conditions: 200 µM; treatment time: 4 h; cell line lysate: HEK293T
row,Target,log2 mean competition ratio
1,ZNHIT2 C41 (UniProt Q9UHR6),0.405
2,ZMYM4 C1368 (UniProt Q5VZL5),0.207
3,ZFC3H1 C241 (UniProt O60293),0.18
4,ZFC3H1 C1068 (UniProt O60293),0.0601
5,ZNF562 C17 (UniProt Q6V9R5),-0.411
6,ZNF302 C274,0.193
7,ZNF280B C5 (UniProt Q86YH2),0.109
8,ZNF747 C108,0.0581
9,ZNF516 C165 (UniProt Q92618),0.151
10,ZMYM2 C823 (UniProt Q9UBW7),-0.029
11,ZNF106 C544 (UniProt Q9H2Y7),0.158
12,ZC3HAV1 C272 (UniProt Q7Z2W4),-0.114
13,ZMYM6 C454,0.309
14,ZNF609 C1120 (UniProt O15014),0.0416
15,ZNF704 C55,-0.042
16,ZW10 C686 (UniProt O43264),0.079
17,ZNF195 C207,-0.1
18,"ZNF654 C732, A0A1B0GWA0",-0.191
19,ZNF518A C813,-0.0255

row,Target,log2 mean competition ratio
1,ZSWIM8 C1441 (UniProt A7E2V4),0.14
2,ZMYM4 C715 (UniProt Q5VZL5),-0.0501
3,ZNF616 C174,0.405
4,ZNF507 C86 (UniProt Q8TCN5),0.271
5,ZCCHC3 C348 (UniProt Q9NUD5),-0.161
6,ZFAND3 C35 (UniProt Q9H8U3),-0.0308
7,ZNF592 C1221 (UniProt Q92610),0.144
8,ZZEF1 C2553 (UniProt O43149),0.0652
9,ZC3H7A C894 (UniProt Q8IWR0),0.0262
10,ZNF318 C242 (UniProt Q5VUA4),0.296
11,ZC3HAV1 C645 (UniProt Q7Z2W4),0.183
12,ZNF106 C1221 (UniProt Q9H2Y7),0.233
13,ZDBF2 C1996,0.247
14,ZC3H7B C576 (UniProt Q9UGR2),-0.121
15,ZYX C384 (UniProt Q15942),0.381
16,ZNF398 C275,-0.315
17,ZFYVE21 C88 (UniProt Q9BQ24),0.28
18,ZNF217 C341 (UniProt O75362),-0.124

# Compound: ClCC(=O)N[C@H]1CCCc2ccccc12
# Assay: as above
# Settings: 50 µM; treatment time: 4 h; cell line lysate: HEK293T
# Protocol: as §1
row,Target,log2 mean competition ratio
1,ZNHIT2 C41 (UniProt Q9UHR6),0.159
2,ZMYM4 C1368 (UniProt Q5VZL5),-0.663
3,ZFC3H1 C241 (UniProt O60293),-0.421
4,ZFC3H1 C1068 (UniProt O60293),-0.19
5,ZNF562 C17 (UniProt Q6V9R5),0.727
6,ZNF302 C274,0.418
7,ZNF280B C5 (UniProt Q86YH2),-0.341
8,ZNF747 C108,-0.65
9,ZNF516 C165 (UniProt Q92618),0.00519
10,ZMYM2 C823 (UniProt Q9UBW7),-0.232
11,ZNF106 C544 (UniProt Q9H2Y7),-0.332
12,ZC3HAV1 C272 (UniProt Q7Z2W4),-0.112
13,ZMYM6 C454,0.00796
14,ZNF609 C1120 (UniProt O15014),-0.239
15,ZNF704 C55,-0.157
16,ZW10 C686 (UniProt O43264),0.169
17,ZNF195 C207,-0.166
18,"ZNF654 C732, A0A1B0GWA0",-0.0801
19,ZNF518A C813,0.025

row,Target,log2 mean competition ratio
1,ZSWIM8 C1441 (UniProt A7E2V4),0.0178
2,ZMYM4 C715 (UniProt Q5VZL5),-0.158
3,ZNF616 C174,-0.167
4,ZNF507 C86 (UniProt Q8TCN5),-0.409
5,ZCCHC3 C348 (UniProt Q9NUD5),0.204
6,ZFAND3 C35 (UniProt Q9H8U3),0.062
7,ZNF592 C1221 (UniProt Q92610),-0.127
8,ZZEF1 C2553 (UniProt O43149),-0.106
9,ZC3H7A C894 (UniProt Q8IWR0),-0.185
10,ZNF318 C242 (UniProt Q5VUA4),-0.285
11,ZC3HAV1 C645 (UniProt Q7Z2W4),-0.126
12,ZNF106 C1221 (UniProt Q9H2Y7),0.496
13,ZDBF2 C1996,-0.396
14,ZC3H7B C576 (UniProt Q9UGR2),0.411
15,ZYX C384 (UniProt Q15942),0.378
16,ZNF398 C275,-0.0164
17,ZFYVE21 C88 (UniProt Q9BQ24),-0.322
18,ZNF217 C341 (UniProt O75362),-0.0204

# Reference: the supplement of paper PMC11732987, “Enantioselective OTUD7B fragment discovery through chemoproteomics screening and high-throughput optimisation” (Communications Chemistry, 2025)
